Reference: paper PMC8283784
No constants are given. Whether binding was seen depends on the method and setting. In cells and extracts the contact can be indirect. Some entries that bind do so weakly or less than the wild type.

By UniProt entry, the sequences of proteins in these tests, tags left out. Where a name states a change or a piece, a line headed by the entry shows the natural chain unless it says otherwise. Chains listed by the source or under a name are the forms on record and can include a tag or linker.
UniProt P03165: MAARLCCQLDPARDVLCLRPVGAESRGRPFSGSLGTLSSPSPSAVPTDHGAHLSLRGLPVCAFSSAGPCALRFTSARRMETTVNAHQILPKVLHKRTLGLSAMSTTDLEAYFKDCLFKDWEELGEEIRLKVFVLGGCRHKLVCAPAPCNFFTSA
UniProt Q16531: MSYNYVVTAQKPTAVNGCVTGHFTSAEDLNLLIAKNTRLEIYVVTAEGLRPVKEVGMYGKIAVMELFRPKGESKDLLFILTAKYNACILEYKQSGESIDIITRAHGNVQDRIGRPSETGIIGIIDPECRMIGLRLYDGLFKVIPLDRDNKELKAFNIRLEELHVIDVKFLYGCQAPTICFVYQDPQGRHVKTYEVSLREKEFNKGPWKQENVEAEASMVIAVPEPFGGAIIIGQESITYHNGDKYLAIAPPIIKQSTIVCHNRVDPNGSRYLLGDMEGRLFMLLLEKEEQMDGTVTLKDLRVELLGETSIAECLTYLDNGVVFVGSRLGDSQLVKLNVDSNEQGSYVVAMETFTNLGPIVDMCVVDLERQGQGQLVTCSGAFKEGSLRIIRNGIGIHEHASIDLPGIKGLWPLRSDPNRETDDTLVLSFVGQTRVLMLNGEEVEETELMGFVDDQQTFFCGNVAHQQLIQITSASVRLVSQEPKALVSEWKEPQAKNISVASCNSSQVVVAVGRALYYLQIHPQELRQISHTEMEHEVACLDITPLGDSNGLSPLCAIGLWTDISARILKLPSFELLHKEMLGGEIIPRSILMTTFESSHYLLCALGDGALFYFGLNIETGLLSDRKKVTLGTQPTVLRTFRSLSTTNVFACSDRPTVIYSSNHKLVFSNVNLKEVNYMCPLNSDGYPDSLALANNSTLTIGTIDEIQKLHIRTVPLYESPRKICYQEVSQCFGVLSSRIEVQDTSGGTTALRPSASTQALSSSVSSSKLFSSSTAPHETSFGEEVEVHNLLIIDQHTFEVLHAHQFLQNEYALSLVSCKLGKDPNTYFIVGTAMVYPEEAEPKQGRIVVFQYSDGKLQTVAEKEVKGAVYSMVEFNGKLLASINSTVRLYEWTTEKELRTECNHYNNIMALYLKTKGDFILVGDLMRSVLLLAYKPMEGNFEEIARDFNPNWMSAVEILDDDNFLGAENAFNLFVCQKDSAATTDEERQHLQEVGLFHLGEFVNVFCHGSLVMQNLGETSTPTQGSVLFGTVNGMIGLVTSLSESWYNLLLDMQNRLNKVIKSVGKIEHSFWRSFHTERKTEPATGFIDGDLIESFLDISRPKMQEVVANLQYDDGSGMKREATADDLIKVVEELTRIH
TRIM5γ (Q9C035-3, form named): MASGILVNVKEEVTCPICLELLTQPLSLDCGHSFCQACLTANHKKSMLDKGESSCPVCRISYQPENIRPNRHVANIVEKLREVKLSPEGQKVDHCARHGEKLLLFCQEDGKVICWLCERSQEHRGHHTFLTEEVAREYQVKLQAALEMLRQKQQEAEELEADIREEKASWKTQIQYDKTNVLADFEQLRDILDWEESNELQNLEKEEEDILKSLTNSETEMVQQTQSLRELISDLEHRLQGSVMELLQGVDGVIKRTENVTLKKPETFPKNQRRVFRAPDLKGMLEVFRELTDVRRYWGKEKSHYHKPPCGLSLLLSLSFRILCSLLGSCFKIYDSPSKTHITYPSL

What was measured:
[1] = target: HBx protein (hepatitis B virus) (UniProt P03165); assay: co-IP; whole cell lysate (2 mg) of PHH cells 4 days after HBV infection; anti-HBx (GS968942), anti-DDB1 or IgG on Dynabeads protein G, overnight at 4°C, 5 washes, immunoblot
[2] = target: DDB1 (human (endogenous in PHH)) (UniProt Q16531); assay: as above

TRIM5γ (from UniProt Q9C035-3 1-347)
binding [1]: binds
binding [2]: binds

DDB1 (from UniProt Q16531 1-1140)
binding [1]: binds
